According to the supplement of paper PMC9135407:
Where “and” joins values, the source holds several entries; their conditions need not be identical. Equal entries are not always repeated. Structures can show the parent of a compound that is named as a salt. ± gives the standard deviation of the averaged measurements. The list shows a part of the results. Baselines shift from plate to plate; read single values as rough.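 Primary human stellate myofibroblasts activated in culture; inactivation shown by regained lipid droplets. Readout: fraction of Hoechst-counted cells exceeding a per-plate Bodipy threshold, duplicate wells, each plate with DMSO negative and nortriptyline positive controls. Hits: control-normalized score beyond the plate's top-tenth-percentile nortriptyline wells, or among its three best wells. Final well concentrations unstated.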

Tested on: primary human hepatic stellate cells (donor 1)
Test: percent Bodipy-positive cells; higher = more lipid droplet accumulation
Settings: 48 h
[1] = library stock concentration: 10 mM
[2] = library stock concentration: 1 mM
[3] = library stock concentration: 3.33 mM
[4] = library stock concentration: 80 uM
[5] = library stock concentration: 400 uM
[6] = library stock concentration: 2 mM

Nc1ncnc2nc(-c3ccc(N4CCOCC4)nc3)cc(-c3cccc(Br)c3)c12 [ABT 702 dihydrochloride]
percent Bodipy-positive cells [1]: 27.5 ± 5.2%

c1ccc2c(Oc3nc(Nc4ccc(N5CCOCC5)cc4)c4ncn(C5CCCCC5)c4n3)cccc2c1 [Purmorphamine]
percent Bodipy-positive cells [2]: 13.3 ± 4.3% | percent Bodipy-positive cells [3]: 7.06 ± 5.7% | percent Bodipy-positive cells [1]: 10.7 ± 3.8%

C[C@]12C=CC(=O)C=C1CC[C@@H]1[C@@H]2C(=O)C[C@@]2(C)[C@H]1CC[C@]2(O)C(=O)CO [Prednisone]
percent Bodipy-positive cells: 28.7 ± 9.4% | percent Bodipy-positive cells [3]: 8.47 ± 0.45% | percent Bodipy-positive cells [1]: 9.34% and 14.9% and 31.3%

C=CCn1c(=O)n([C@@H]2O[C@H](CO)[C@@H](O)[C@H]2O)c2nc(N)[nH]c(=O)c21
percent Bodipy-positive cells [1]: 4.91 ± 0.15%

C[C@]12C=CC(=O)C=C1CC[C@@H]1C2=CC[C@]2(C)[C@@H](C(=O)CN3CCN(c4cc(N5CCCC5)nc(N5CCCC5)n4)CC3)CC[C@@H]12
percent Bodipy-positive cells [1]: 32.5 ± 7.2%

COc1cc2nccc(Oc3ccc(NC(=O)Nc4ccc(F)cc4F)c(F)c3)c2cc1OC
percent Bodipy-positive cells [3]: 51.2 ± 10%

CN1CCN(C2=Nc3ccccc3Sc3ccc(Cl)cc32)CC1 [Clothiapine]
percent Bodipy-positive cells (library stock concentration: 5.8 mM): 37.2 ± 4.5%

CC1(C)[C@@H](O[C@H]2O[C@H](C(=O)O)[C@@H](O)[C@H](O)[C@H]2O[C@@H]2O[C@H](C(=O)O)[C@@H](O)[C@H](O)[C@H]2O)CC[C@]2(C)[C@H]3C(=O)C=C4[C@@H]5C[C@@](C)(C(=O)O)CC[C@]5(C)CC[C@@]4(C)[C@]3(C)CC[C@@H]12 [Ammonium Glycyrrhizinate]
percent Bodipy-positive cells [3]: 5.87 ± 3% | percent Bodipy-positive cells [1]: 21.8 ± 6.5%

CNc1cc(NS(=O)(=O)c2ccc(N)cc2)nc(NC)n1 [Ro 04-6790 dihydrochloride]
percent Bodipy-positive cells [1]: 9.69 ± 1%

Oc1ccc(Nc2nc(-c3ccc(Cl)cc3)cs2)cc1
percent Bodipy-positive cells [4]: 13.6 ± 1.6% | percent Bodipy-positive cells [5]: 19.2 ± 16% | percent Bodipy-positive cells [6]: 6.78 ± 3.2% | percent Bodipy-positive cells [3]: 17.3 ± 1.1% | percent Bodipy-positive cells [1]: 11.4% and 5.48%

Oc1ccc(Nc2nc(-c3ccc(Cl)cc3)cs2)cc1 [Sphingosine Kinase Inhibitor 2]
percent Bodipy-positive cells [2]: 4.96 ± 0.32%

NC(=O)c1c(NC(=O)C2CC2)sc2c1CCCC2
percent Bodipy-positive cells [4]: 19 ± 9.1% | percent Bodipy-positive cells [5]: 14.8 ± 4.7% | percent Bodipy-positive cells [6]: 17.9 ± 6.5% | percent Bodipy-positive cells [1]: 20.9 ± 1.6%

Cc1ccc(C(=O)NCCCCCC(=O)Nc2ccccc2N)cc1
percent Bodipy-positive cells [3]: 36.8 ± 8.2% | percent Bodipy-positive cells [1]: 83.2 ± 2.6%

CCCCC(C)CC(O)/C=C/C1C(O)CC(O)C1CCCCCCC(=O)O (stereo not drawn) [17,20-dimethyl Prostaglandin F1.alpha.]
percent Bodipy-positive cells [2]: 8.05 ± 0.17%

N#Cc1ccc2[nH]c(O)c(-c3ccc(CN4CCOCC4)cn3)c2c1
percent Bodipy-positive cells [3]: 85.5 ± 1.1% | percent Bodipy-positive cells [1]: 91.11 ± 0.41%
